Measured values from article PMC9834230, “The HAPSTR2 retrogene buffers stress signaling and resilience in mammals” (Nature Communications, 2023).
These are yes or no findings as the source states them, for the method shown. Binding seen in cells or lysates may run through a third protein. Binding can be weak; no strength is given. Sequences can lack the tags named with a protein.

Biological target: T1, recombinant maltose-binding protein (MBP)-tagged HAPSTR2 (human)
T1 sequence: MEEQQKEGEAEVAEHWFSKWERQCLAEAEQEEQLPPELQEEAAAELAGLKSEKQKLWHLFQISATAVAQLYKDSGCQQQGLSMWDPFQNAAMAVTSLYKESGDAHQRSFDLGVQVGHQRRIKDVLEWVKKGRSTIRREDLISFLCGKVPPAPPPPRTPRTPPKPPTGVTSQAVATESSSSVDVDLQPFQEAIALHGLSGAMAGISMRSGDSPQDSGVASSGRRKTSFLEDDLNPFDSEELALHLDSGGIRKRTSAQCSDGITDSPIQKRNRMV
Test: pull-down; recombinant MBP-tagged bait on amylose resin; 2.5 mg protein of 293T whole cell lysate, overnight at 4 °C; wash buffer 10 mM Tris-HCl, 200 mM NaCl, 1 mM EDTA, 1 mM DTT, pH 7.5; eluted with 10 mM maltose; immunoblot; only the target purified

endogenous HAPSTR1, short isoform (human (endogenous in 293T))
binding: binds
